{
  "source": "patent US20070243132A1",
  "about": "“Transdermal delivery of pharmaceutical agents” (priority 2005, published 2007)",
  "origin": "cited, not measured here",
  "conditions": "microemulsions compared to a conventional oil-in-water emulsion; cited from earlier work",
  "data": [
    {"molecule": "CCN(CC)CC(=O)Nc1c(C)cccc1C", "note": "[lidocaine]", "values": [
      {"measurement": "increase of transdermal flux", "result": "up to four times"}
    ]}
  ]
}
